The results in this text go back to the supplement of paper PMC10849652.

Chains of the proteins cited; added tags and fusions are not shown. Lines headed by an entry give the natural chain unless they say otherwise; changes in a name come on top.
UniProt Q96EB6: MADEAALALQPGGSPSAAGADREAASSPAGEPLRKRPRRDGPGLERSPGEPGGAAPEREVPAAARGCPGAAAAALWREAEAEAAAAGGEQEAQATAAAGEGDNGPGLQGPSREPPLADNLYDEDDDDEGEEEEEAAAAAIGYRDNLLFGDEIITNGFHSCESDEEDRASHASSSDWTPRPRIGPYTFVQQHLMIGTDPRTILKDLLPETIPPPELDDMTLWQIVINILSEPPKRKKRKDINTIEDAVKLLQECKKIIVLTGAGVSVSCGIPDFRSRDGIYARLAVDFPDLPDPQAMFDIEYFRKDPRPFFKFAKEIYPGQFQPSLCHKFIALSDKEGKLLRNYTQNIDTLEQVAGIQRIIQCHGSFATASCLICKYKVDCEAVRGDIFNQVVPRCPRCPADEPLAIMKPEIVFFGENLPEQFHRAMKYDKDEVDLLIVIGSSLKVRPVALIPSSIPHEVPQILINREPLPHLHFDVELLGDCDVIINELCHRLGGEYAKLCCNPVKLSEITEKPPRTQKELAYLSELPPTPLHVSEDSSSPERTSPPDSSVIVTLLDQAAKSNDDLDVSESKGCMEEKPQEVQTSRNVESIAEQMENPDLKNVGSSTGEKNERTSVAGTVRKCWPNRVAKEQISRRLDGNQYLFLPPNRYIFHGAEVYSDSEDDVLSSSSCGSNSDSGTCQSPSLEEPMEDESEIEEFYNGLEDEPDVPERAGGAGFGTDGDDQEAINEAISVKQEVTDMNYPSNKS
UniProt Q8IZQ5, whole entry, looked up: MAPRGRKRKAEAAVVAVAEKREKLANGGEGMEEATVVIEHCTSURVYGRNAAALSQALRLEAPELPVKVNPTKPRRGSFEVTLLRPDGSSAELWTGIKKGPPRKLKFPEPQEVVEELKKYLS
UniProt Q96EQ0: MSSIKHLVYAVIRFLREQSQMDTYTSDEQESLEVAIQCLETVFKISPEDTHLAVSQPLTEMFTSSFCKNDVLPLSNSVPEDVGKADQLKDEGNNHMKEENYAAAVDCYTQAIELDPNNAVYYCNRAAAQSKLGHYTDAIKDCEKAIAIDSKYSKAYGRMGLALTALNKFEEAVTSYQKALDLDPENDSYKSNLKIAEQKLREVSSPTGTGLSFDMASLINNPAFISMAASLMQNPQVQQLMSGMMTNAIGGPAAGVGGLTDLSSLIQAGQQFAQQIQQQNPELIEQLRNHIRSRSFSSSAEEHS
UniProt Q8NC51: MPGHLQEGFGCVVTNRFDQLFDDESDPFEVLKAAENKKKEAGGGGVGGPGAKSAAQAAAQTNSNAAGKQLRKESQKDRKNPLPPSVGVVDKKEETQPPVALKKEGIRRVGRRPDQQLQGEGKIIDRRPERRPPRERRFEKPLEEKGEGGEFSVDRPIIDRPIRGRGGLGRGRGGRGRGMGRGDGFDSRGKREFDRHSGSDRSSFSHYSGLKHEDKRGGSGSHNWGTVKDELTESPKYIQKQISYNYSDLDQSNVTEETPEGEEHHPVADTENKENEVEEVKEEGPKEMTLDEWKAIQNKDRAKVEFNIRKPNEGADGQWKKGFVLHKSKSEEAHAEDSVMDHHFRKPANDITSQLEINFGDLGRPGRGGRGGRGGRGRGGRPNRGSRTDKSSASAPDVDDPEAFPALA
UniProt Q9NXA8: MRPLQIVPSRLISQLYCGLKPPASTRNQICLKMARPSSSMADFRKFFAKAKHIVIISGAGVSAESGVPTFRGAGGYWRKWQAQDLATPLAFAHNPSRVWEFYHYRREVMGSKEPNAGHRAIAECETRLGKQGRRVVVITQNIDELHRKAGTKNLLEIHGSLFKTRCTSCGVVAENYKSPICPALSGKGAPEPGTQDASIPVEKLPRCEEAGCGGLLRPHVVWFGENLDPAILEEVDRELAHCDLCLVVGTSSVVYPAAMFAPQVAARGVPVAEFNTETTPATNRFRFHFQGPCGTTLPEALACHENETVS
UniProt O60613, whole entry, looked up: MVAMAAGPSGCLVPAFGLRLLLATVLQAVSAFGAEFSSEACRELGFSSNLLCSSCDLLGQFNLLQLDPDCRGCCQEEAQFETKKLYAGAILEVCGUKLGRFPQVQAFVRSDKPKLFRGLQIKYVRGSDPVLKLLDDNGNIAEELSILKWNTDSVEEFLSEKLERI
UniProt Q92599: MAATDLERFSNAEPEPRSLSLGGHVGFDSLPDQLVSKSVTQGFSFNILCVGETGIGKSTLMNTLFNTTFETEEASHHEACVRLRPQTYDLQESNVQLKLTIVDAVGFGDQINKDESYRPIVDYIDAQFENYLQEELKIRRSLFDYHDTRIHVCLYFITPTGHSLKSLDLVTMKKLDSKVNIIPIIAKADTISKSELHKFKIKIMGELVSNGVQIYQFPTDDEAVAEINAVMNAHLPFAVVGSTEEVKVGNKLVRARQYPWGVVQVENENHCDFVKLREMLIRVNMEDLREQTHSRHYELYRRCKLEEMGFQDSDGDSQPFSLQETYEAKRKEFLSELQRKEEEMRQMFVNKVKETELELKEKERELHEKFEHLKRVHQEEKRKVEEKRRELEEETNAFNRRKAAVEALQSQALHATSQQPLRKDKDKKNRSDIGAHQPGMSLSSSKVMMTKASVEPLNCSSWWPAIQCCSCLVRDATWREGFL
UniProt P60468, whole entry, looked up: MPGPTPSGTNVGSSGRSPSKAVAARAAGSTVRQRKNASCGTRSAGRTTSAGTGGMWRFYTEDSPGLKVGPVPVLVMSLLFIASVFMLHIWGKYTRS
UniProt Q96ES7: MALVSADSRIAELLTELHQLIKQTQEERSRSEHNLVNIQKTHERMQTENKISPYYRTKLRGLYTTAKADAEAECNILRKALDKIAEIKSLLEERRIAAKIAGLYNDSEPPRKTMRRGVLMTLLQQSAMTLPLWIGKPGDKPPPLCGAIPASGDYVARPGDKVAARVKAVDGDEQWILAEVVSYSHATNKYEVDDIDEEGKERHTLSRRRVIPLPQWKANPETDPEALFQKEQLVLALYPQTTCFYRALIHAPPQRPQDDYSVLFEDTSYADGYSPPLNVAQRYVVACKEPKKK
UniProt Q99574: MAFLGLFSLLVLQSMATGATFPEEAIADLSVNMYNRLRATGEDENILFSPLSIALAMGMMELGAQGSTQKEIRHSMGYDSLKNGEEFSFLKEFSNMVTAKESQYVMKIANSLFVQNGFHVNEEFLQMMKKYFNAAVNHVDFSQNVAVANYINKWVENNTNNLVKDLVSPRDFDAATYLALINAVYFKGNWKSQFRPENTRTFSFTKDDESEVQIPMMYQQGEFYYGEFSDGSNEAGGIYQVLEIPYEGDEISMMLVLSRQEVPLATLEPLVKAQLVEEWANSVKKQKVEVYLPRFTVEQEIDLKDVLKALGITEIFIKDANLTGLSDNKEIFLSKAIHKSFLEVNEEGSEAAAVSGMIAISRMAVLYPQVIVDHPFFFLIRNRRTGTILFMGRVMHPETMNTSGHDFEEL
UniProt O43765: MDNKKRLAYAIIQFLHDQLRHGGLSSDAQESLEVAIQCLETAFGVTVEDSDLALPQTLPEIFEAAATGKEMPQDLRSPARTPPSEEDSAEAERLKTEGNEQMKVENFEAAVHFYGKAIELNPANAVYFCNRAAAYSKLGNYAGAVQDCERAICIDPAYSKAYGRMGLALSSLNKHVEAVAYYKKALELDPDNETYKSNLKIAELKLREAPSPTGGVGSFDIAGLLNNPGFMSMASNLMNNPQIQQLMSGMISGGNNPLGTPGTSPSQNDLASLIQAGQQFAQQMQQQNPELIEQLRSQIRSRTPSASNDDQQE
UniProt Q12872: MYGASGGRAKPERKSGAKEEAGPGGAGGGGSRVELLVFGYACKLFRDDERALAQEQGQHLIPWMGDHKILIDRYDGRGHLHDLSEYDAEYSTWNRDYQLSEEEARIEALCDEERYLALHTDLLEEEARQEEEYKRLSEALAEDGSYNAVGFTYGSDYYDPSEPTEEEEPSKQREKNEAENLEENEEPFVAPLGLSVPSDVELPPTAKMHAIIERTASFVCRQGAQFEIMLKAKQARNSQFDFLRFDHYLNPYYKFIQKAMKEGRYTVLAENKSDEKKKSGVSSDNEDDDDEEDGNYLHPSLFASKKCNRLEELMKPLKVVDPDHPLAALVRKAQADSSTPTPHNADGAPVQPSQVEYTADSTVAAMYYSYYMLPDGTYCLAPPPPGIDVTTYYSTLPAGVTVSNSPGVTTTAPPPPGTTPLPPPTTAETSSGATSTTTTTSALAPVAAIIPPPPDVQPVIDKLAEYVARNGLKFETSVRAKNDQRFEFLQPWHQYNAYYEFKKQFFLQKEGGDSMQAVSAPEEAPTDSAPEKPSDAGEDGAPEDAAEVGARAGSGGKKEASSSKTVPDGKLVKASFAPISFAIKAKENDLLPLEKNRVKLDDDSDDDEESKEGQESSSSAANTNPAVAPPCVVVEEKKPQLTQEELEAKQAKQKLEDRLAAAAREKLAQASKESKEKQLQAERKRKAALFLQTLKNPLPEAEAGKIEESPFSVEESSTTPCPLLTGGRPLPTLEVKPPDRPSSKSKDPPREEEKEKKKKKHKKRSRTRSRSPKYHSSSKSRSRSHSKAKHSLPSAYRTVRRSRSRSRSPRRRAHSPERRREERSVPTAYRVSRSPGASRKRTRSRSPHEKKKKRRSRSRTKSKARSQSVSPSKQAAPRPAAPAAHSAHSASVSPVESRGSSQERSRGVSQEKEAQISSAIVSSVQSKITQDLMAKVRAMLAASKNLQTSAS
UniProt Q15428: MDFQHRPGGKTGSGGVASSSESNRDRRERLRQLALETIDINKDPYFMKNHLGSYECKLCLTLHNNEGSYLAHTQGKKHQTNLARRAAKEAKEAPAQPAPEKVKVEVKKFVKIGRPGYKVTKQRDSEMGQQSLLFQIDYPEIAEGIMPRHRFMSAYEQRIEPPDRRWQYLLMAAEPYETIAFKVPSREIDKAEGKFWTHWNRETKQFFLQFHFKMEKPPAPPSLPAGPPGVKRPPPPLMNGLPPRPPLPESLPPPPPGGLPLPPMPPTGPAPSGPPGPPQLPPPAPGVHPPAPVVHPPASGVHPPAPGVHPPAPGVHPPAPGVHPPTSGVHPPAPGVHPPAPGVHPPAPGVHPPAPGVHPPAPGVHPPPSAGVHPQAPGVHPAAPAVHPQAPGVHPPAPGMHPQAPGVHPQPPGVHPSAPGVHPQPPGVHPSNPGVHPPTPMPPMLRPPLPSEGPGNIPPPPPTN
UniProt Q9UHD8: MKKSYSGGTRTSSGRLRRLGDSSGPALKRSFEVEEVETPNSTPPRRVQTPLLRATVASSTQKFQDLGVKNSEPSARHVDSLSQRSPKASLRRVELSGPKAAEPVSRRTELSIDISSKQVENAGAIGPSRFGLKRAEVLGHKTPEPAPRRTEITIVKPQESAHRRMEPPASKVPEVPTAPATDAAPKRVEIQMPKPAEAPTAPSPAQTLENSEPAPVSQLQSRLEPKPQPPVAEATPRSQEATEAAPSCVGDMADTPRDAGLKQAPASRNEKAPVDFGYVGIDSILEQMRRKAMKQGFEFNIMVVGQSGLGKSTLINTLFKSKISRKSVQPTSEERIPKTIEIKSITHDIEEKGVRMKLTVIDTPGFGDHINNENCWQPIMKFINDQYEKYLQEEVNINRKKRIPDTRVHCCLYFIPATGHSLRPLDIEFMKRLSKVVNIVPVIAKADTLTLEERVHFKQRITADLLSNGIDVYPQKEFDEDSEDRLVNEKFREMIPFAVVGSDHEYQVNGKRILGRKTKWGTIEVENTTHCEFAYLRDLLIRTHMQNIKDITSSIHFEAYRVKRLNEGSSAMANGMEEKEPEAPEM
UniProt Q7L8J4: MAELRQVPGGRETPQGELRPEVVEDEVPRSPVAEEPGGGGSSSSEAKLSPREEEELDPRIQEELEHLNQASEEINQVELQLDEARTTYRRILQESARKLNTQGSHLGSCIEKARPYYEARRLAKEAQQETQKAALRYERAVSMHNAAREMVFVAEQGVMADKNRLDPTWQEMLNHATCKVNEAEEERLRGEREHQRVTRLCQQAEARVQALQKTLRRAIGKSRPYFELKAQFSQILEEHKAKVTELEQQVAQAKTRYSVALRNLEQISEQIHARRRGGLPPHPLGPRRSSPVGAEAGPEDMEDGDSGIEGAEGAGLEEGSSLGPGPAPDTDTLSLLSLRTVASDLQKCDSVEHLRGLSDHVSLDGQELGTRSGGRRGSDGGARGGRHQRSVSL
UniProt P50454: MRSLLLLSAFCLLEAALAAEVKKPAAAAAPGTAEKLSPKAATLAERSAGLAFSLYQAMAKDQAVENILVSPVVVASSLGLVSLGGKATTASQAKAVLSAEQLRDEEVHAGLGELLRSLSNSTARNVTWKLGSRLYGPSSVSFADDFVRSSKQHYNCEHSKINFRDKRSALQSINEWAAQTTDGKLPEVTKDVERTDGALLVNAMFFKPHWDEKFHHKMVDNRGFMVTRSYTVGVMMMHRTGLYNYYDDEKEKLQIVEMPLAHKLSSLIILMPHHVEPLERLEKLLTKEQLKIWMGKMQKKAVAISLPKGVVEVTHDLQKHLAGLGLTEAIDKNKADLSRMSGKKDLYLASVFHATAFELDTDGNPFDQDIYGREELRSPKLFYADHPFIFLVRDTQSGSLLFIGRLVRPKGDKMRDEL
UniProt Q9Y3B4: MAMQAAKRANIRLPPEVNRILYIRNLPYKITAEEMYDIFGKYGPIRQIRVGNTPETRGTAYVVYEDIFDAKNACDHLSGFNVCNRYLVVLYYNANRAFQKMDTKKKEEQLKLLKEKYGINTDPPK

The other results are listed elsewhere or left out.

Compound in one assay: C1=CC(=C(C=C1Cl)C2=NC3=NC=CN=C3C(=N2)NC4=CC=NC=C4)F
Put plainly: log2 fold change, soluble protein after heating vs DMSO (PISA); higher = thermal stabilisation; K562 cells, 10 uM, 30 min; active = over 0.2 and 3.5 SD of the protein, either way, in both replicates (recomputed). An outline of the steps:
(§1)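 Quantification of soluble protein used TMTpro 16plex LC-MS/MS, with channel sums equalised. Samples were the supernatant after 21,000xg for 90 min of pooled aliquots from K562 cells (2×10^6 cells/mL) treated with 10 μM compound for 30 min, heated for 3 min over 48°C-58°C, and extracted in PBS with 0.5% NP-40 at 4°C. Values, from duplicates, describe thermal stability against control samples on a log2 fold-change scale.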
Take SIRT1 (UniProt Q96EB6): the log2 fold change was inactive: 0.098.
SELENOH (UniProt Q8IZQ5): the log2 fold change is inactive: -0.013.
On to SGTB (UniProt Q96EQ0), for which the log2 fold change was inactive: 0.027.
The same measure, in the same setting: the value for SERBP1 isoform 3 (UniProt Q8NC51) was inactive: -0.171; that for SIRT5 (UniProt Q9NXA8) was inactive: 0.011.
SELENOF (UniProt O60613): the log2 fold change was inactive: -0.023.
On the same count and under the same terms, the value for SEPTIN8 (UniProt Q92599) was inactive: 0.037.
The same measure, in the same setting: the figure for SEC61B (UniProt P60468) is inactive: 0.028; for SGF29 (UniProt Q96ES7) it is inactive: -0.018.

Compound in a further assay: C1=CC(=CC=C1C2=NC3=C(N2)C=C(C=C3)C(=O)N)OC4=CC=C(C=C4)Cl
Described as above. An outline of the steps: as §1
With SF3A1 (UniProt Q15459), the log2 fold change was inactive: -0.001.
Still for that read-out and setting: the value for SERPINI1 (UniProt Q99574) was inactive: -0.035; that for SGTA (UniProt O43765) was inactive: 0.025; that for SF3B4 (UniProt Q15427) was inactive: 0.038.
The same measure, in the same setting: the figure for SF3B1 (UniProt O75533) is inactive: 0.007; for SFSWAP isoform 2 (UniProt Q12872) it is inactive: -0.013.
Regarding SENP6 (UniProt Q9GZR1), the log2 fold change was inactive: -0.049.
On the same count and under the same terms, the value for SEMA4C (UniProt Q9C0C4) was inactive: 0.018; that for SIRT6 (UniProt Q8N6T7) was inactive: -0.084.
Turning to SERGEF (UniProt Q9UGK8), the log2 fold change is inactive: 0.02.
The same measure, in the same setting: the figure for SERPINB8 (UniProt P50452) is inactive: -0.005; for SF3A2 (UniProt Q15428) it is inactive: -0.005; for SHMT1 (UniProt P34896) it is inactive: 0.042.
As to SEPTIN9 (UniProt Q9UHD8), the log2 fold change was inactive: -0.001.
Still for that read-out and setting: the value for SEPTIN5 (UniProt Q99719) was inactive: 0.006; that for SIDT2 isoform 2 (UniProt Q8NBJ9) was inactive: 0.004.
Same read-out and setting: the value for SH3BP5L (UniProt Q7L8J4) was inactive: -0.013; that for SERPINH1 (UniProt P50454) was inactive: -0.03.
SF3B6 (UniProt Q9Y3B4): the log2 fold change is inactive: 0.052.
For SEL1L (UniProt Q9UBV2), the log2 fold change is inactive: 0.024.
The same measure, in the same setting: the value for SFXN4 (UniProt Q6P4A7) was inactive: -0.022; that for SERPINA7 (UniProt P05543) was inactive: 0.091.
For the target SEPTIN6 (UniProt Q14141), the log2 fold change was inactive: 0.03.
Same read-out and setting: the value for SIRT1 (UniProt Q96EB6) was inactive: 0.044; that for SELENOH (UniProt Q8IZQ5) was inactive: -0.003.
Still for that read-out and setting: the figure for SGTB (UniProt Q96EQ0) is inactive: 0.01.
As to SERBP1 isoform 3 (UniProt Q8NC51), the log2 fold change was inactive: -0.05.
As to SIRT5 (UniProt Q9NXA8), the log2 fold change is inactive: 0.054.
On the same count and under the same terms, the value for SELENOF (UniProt O60613) was inactive: 0.034.
Consider SEPTIN8 (UniProt Q92599), for which the log2 fold change is inactive: -0.014.
On the same count and under the same terms, the value for SEC61B (UniProt P60468) was inactive: -0.086.
Still for that read-out and setting: the value for SGF29 (UniProt Q96ES7) was inactive: 0.004.

Compound in the next assay: C1=CC2=C(C=CC(=C2)/C=C\3/C(=O)NC(=NCC4=CC=CS4)S3)N=C1
Described as above. The gist of the method: as §1
With SF3A1 (UniProt Q15459), the log2 fold change is inactive: 0.011.
For the target SERPINI1 (UniProt Q99574), the log2 fold change is inactive: 0.077.
Still for that read-out and setting: the figure for SGTA (UniProt O43765) is inactive: 0.007; for SF3B4 (UniProt Q15427) it is inactive: 0.098; for SF3B1 (UniProt O75533) it is inactive: 0.023.
On the same count and under the same terms, the value for SFSWAP isoform 2 (UniProt Q12872) was inactive: -0.046; that for SENP6 (UniProt Q9GZR1) was inactive: -0.029; that for SEMA4C (UniProt Q9C0C4) was inactive: -0.026.
In the case of SIRT6 (UniProt Q8N6T7), the log2 fold change was inactive: -0.022.
Same read-out and setting: the figure for SERGEF (UniProt Q9UGK8) is inactive: 0.057; for SERPINB8 (UniProt P50452) it is inactive: -0.04; for SF3A2 (UniProt Q15428) it is inactive: -0.022.
Take SHMT1 (UniProt P34896): the log2 fold change was inactive: 0.026.
SEPTIN9 (UniProt Q9UHD8): the log2 fold change is inactive: 0.002.
Same read-out and setting: the figure for SEPTIN5 (UniProt Q99719) is inactive: 0.004.
Same read-out and setting: the figure for SIDT2 isoform 2 (UniProt Q8NBJ9) is inactive: 0.042; for SH3BP5L (UniProt Q7L8J4) it is inactive: -0.005; for SERPINH1 (UniProt P50454) it is inactive: -0.033.
Same read-out and setting: the value for SF3B6 (UniProt Q9Y3B4) was inactive: 0.13; that for SEL1L (UniProt Q9UBV2) was inactive: 0.041.
Turning to SFXN4 (UniProt Q6P4A7), the log2 fold change is inactive: 0.098.
In the case of SERPINA7 (UniProt P05543), the log2 fold change is inactive: 0.15.
Still for that read-out and setting: the value for SEPTIN6 (UniProt Q14141) was inactive: 0.018; that for SIRT1 (UniProt Q96EB6) was inactive: -0.003.
In the case of SELENOH (UniProt Q8IZQ5), the log2 fold change was active: -0.297.
On the same count and under the same terms, the value for SGTB (UniProt Q96EQ0) was inactive: 0.04; that for SERBP1 isoform 3 (UniProt Q8NC51) was inactive: -0.023; that for SIRT5 (UniProt Q9NXA8) was inactive: -0.035.
Take SELENOF (UniProt O60613): the log2 fold change is inactive: -0.007.
Same read-out and setting: the value for SEPTIN8 (UniProt Q92599) was inactive: 0.001.
Same read-out and setting: the figure for SEC61B (UniProt P60468) is inactive: -0.056; for SGF29 (UniProt Q96ES7) it is inactive: -0.007.
